Assay results from the supplement of paper PMC6411743.
± gives the standard deviation of the averaged measurements. This is one part of the list.

What was measured:
Experiment in all cases: NP40-soluble protein abundance relative to vehicle (solubility fold change) (ratio); higher = more soluble protein in presence of GTP
[1] = molecular target: T1, UniProt Q9Y2K1 and related entries
T1 sequence (whole entry): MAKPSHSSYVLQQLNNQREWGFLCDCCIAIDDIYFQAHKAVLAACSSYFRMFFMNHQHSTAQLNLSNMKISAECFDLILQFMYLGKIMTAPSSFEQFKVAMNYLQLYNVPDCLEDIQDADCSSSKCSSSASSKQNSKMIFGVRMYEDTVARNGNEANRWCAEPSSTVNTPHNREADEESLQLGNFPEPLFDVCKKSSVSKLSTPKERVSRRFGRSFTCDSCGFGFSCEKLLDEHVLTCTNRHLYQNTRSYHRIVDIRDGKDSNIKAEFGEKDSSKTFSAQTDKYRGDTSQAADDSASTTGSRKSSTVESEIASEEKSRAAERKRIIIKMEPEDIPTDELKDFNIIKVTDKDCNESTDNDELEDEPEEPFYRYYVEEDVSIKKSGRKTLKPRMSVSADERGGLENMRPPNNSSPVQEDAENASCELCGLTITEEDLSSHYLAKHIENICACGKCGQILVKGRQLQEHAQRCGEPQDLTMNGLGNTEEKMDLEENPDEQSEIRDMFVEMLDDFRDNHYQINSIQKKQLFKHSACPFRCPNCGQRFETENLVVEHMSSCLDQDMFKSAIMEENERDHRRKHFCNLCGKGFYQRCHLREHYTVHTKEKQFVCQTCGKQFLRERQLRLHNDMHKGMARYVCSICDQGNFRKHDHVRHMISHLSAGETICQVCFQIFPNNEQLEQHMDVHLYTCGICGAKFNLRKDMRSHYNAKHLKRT
Procedure, shortened: (§1)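 Each value is a fold change relative to the detergent-processed vehicle, calculated per replicate from vsn-normalised intensities. Jurkat crude lysate received eight concentrations (0.1 to 10 mM) for 10 min at room temperature and 3 min at 37 °C, then was solubilised in 0.8% NP40 with benzonase (60 min, 4 °C). The ultracentrifuged supernatant was TMT-labelled and run by LC-MS/MS in three independent experiments.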

[2] = molecular target: T2, UniProt Q9Y312 and related entries
T2 sequence (whole entry): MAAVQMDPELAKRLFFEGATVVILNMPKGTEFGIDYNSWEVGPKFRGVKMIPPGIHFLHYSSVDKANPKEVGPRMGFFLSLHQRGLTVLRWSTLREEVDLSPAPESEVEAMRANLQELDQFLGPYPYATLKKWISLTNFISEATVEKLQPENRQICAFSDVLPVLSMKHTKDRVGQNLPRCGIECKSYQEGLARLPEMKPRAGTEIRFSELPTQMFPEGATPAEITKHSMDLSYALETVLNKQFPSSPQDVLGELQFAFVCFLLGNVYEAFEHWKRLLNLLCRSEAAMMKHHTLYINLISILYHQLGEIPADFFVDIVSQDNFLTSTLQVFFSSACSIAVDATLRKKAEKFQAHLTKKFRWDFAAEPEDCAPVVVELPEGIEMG
Procedure, shortened: as §1

[3] = molecular target: T3, UniProt Q9Y4C2 and related entries
T3 sequence (whole entry): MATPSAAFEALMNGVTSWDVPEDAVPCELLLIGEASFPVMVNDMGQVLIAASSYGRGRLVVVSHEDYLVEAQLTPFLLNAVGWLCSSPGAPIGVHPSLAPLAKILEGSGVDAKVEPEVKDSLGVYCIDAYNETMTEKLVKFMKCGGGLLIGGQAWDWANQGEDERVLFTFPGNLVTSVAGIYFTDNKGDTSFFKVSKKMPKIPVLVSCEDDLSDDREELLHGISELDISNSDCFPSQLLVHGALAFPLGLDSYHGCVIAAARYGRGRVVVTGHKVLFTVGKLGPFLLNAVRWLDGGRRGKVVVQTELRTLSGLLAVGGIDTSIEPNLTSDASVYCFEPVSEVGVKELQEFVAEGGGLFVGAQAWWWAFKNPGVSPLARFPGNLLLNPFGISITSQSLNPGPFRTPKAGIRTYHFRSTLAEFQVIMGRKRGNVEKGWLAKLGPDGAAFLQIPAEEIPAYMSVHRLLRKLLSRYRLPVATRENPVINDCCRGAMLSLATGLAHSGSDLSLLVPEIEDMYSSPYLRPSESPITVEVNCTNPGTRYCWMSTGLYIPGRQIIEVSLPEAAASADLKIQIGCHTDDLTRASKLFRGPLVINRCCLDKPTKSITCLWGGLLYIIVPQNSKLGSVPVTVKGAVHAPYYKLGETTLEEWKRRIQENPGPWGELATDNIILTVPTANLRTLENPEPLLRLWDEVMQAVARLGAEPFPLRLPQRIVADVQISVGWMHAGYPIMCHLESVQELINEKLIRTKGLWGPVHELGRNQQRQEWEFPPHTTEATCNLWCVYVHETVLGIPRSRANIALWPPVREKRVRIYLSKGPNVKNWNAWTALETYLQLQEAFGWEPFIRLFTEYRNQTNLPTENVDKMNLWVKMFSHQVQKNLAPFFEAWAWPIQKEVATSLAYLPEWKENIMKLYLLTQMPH
Procedure, shortened: as §1

[4] = molecular target: T4, UniProt Q9Y4W2 and related entries
T4 sequence (whole entry): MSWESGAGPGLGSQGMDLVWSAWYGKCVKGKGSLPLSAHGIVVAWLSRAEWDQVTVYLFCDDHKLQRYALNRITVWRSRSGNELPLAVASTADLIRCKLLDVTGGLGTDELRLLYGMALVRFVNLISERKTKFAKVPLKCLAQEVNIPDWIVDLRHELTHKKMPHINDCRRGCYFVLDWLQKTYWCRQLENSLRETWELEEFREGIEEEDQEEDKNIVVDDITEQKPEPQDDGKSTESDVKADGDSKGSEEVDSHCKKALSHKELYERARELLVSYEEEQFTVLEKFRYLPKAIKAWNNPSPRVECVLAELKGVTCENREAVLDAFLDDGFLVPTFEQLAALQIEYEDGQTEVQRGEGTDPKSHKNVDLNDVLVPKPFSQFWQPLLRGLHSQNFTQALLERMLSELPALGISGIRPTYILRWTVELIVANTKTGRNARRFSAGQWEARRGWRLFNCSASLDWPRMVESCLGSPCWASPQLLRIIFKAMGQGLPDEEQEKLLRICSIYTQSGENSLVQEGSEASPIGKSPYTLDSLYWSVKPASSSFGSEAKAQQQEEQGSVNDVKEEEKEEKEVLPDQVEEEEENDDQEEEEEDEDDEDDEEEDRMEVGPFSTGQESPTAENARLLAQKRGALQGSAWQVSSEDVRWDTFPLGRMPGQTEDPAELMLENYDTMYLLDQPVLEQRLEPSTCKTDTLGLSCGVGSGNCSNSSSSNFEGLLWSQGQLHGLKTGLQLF
Procedure, shortened: as §1

## Nc1nc2c(ncn2[C@@H]2O[C@H](COP(=O)(O)OP(=O)(O)OP(=O)(O)O)[C@@H](O)[C@H]2O)c(=O)[nH]1 [guanosine triphosphate]
[1]; concentration: 4mM
  NP40-soluble protein abundance: 1.15 ± 0.08
[1]; concentration: 6mM
  NP40-soluble protein abundance: 1.17 ± 0.11
[1]; concentration: 8mM
  NP40-soluble protein abundance: 1.22 ± 0.11
[1]; concentration: 10mM
  NP40-soluble protein abundance: 1.25 ± 0.15
[2]; concentration: 0.1mM
  NP40-soluble protein abundance: 0.9705 ± 0.0056
[2]; concentration: 0.5mM
  NP40-soluble protein abundance: 1.03 ± 0.08
[2]; concentration: 1mM
  NP40-soluble protein abundance: 0.984 ± 0.035
[2]; concentration: 2mM
  NP40-soluble protein abundance: 1.02 ± 0.055
[2]; concentration: 4mM
  NP40-soluble protein abundance: 1.02 ± 0.053
[2]; concentration: 6mM
  NP40-soluble protein abundance: 0.971 ± 0.043
[2]; concentration: 8mM
  NP40-soluble protein abundance: 0.995 ± 0.059
[2]; concentration: 10mM
  NP40-soluble protein abundance: 0.955 ± 0.088
[3]; concentration: 0.1mM
  NP40-soluble protein abundance: 1.16 ± 0.061
[3]; concentration: 0.5mM
  NP40-soluble protein abundance: 1.09 ± 0.053
[3]; concentration: 1mM
  NP40-soluble protein abundance: 1.11 ± 0.024
[3]; concentration: 2mM
  NP40-soluble protein abundance: 1.08 ± 0.018
[3]; concentration: 4mM
  NP40-soluble protein abundance: 1.06 ± 0.044
[3]; concentration: 6mM
  NP40-soluble protein abundance: 1.08 ± 0.13
[3]; concentration: 8mM
  NP40-soluble protein abundance: 1.106 ± 0.006
[3]; concentration: 10mM
  NP40-soluble protein abundance: 1 ± 0.078
[4]; concentration: 0.1mM
  NP40-soluble protein abundance: 1.03 ± 0.055
[4]; concentration: 0.5mM
  NP40-soluble protein abundance: 1.04 ± 0.066
[4]; concentration: 1mM
  NP40-soluble protein abundance: 1.04 ± 0.14
[4]; concentration: 2mM
  NP40-soluble protein abundance: 1.09 ± 0.13
[4]; concentration: 4mM
  NP40-soluble protein abundance: 1.08 ± 0.15
[4]; concentration: 6mM
  NP40-soluble protein abundance: 1.11 ± 0.085
[4]; concentration: 8mM
  NP40-soluble protein abundance: 1.15 ± 0.16
[4]; concentration: 10mM
  NP40-soluble protein abundance: 1.13 ± 0.15
